Results published in PubChem BioAssay AID1487 (National Center for Advancing Translational Sciences (NCATS), 2009).
Where “and” joins values, the source holds several entries; their conditions need not be identical. Identical values can stand only once. Some of the results follow. The main result of the screen is listed elsewhere. These columns were measured beside it and carry no call. Compounds called inactive in the main read-out are mostly missing here. The note in brackets gives the kind of curve behind each potency; many fits are weak.

Assay: qHTS Assay for Modulators of Lamin A Splicing
Settings: HeLa LMNA splicing GFP/RFP minigene ratio, 48 h
Procedure, shortened: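 S3 HeLa cells stably expressing lamin A-EGFP splicing minigene plus DsRed2, 600 cells/well, 48 h compound exposure at 37C. Laser-scanning cytometry; analysed as GFP (500-530 nm)/RFP (575-640 nm) total intensity ratio; 0.5% DMSO vehicle.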

[1] = measured here: RFP viability control channel
[2] = measured here: GFP splicing reporter channel

Row | Compound | AC50 [1] | AC50 [2]
1 | Nc1cccc(CCc2nc3cc4ccccc4cc3[nH]2)c1 | 2.82 µM [rising, full curve] | –
2 | O=C(Nc1ccc2c(c1)OCCO2)c1ccc(Cl)c(S(=O)(=O)N2CCCCC2)c1 | 11.2 µM [rising, partial curve] | –
3 | O=C(N/N=C/c1ccccc1)c1[nH]c2ccc(Br)cc2c1-c1ccccc1 | 7.08 µM [rising, partial curve] | –
4 | Cc1ccc(S(=O)(=O)Nc2ccc3c(c2)CCCN3C(=O)c2cccs2)cc1C | 0.0501 µM [falling, full curve, poor fit] | –
5 | CC(=O)NC1=NC(=O)/C(=C/c2cc(C)n(-c3ccc(NC(C)=O)cc3)c2C)S1 | 2.82 µM [falling, partial curve, poor fit] | 1 µM [falling, full curve, poor fit]
6 | COc1ccc(CCNC2=NCCS2)cc1 | – | 12.6 µM [rising, single point]
7 | COc1ccc(NS(=O)(=O)c2ccc(NC(=O)c3ccc(CN4CCOCC4)cc3)cc2)cc1 | 1.41 µM [falling, partial curve] | 4.47 µM [falling, single point]
8 | CCc1ccc(CNC(=O)c2ccc(-n3c(C)cc4c3CCC(C)C4)cc2)cc1 (centres undefined) | 35.5 µM [falling, single point] | –
9 | CN(Cc1nccn1C)C(=O)CC1C(=O)NCCN1CC(c1ccccc1)c1ccccc1 (centres undefined) | 0.00447 µM [falling, full curve, poor fit] | 35.5 µM [falling, single point]
10 | COc1ccc(-c2nnc(SCC(=O)NCc3cccs3)n2C(C)C)cc1 | – | 11.2 µM [rising, partial curve, poor fit]
11 | CN(Cc1ccccc1)c1nc2c(c(=O)[nH]c(=O)n2C)n1CCCc1ccccc1 | 12.6 µM [rising, single point] | 11.2 µM [rising, single point]
12 | COc1ccc(NC(=O)CN2CCC3(O)CCCCC3C2c2cc(OC)ccc2OC)cc1 (centres undefined) | 14.1 µM [rising, single point] | –
13 | Cn1nnnc1SCc1csc(Nc2ccccc2)n1 | 31.6 µM [rising, single point] | 11.2 µM [rising, single point]
14 | O=C(CSc1nnc(COc2ccccc2)n1-c1ccccc1)c1cccs1 | 22.4 µM [rising, single point] | 12.6 µM [rising, partial curve]
15 | O=C(c1ccc(Br)cc1)c1cc(-c2ccccn2)c(N2CCOCC2)s1 | 15.8 µM [rising, single point] | –
16 | COc1ccc(Cl)cc1NC(=S)Nc1ccccc1F | 0.00282 µM [rising, full curve] | 0.126 µM [rising, full curve, poor fit]
17 | O=C(c1ccc2c(c1)N(Cc1cccc(Cl)c1)C(=O)c1ccccc1S2(=O)=O)N1CCN(Cc2ccccc2)CC1 | 8.91 µM [falling, full curve] | 14.1 µM [falling, partial curve]
18 | Clc1cc(Br)ccc1OCCCNCc1ccccc1 | – | 25.1 µM [rising, partial curve, poor fit]
19 | CCCCCCc1nc2ccccc2c(=O)n1NC(=O)c1c(O)c2c(n(CC(C)C)c1=O)CCCC2 | – | 12.6 µM [falling, partial curve, poor fit]
20 | CCNc1nc(NC(C)C)nc(OCCOC(=O)Nc2ccccc2)n1 | 12.6 µM [rising, single point] | –
21 | Cc1cc(N(C)NC(=S)Nc2ccccc2)nc(C)n1 | 10 µM [rising, partial curve] | 0.0501 µM [rising, full curve, poor fit]
22 | CN(C)S(=O)(=O)c1cc(NC(=O)CSc2nn(-c3ccc(Cl)cc3)c(=S)s2)ccc1Cl | 22.4 µM [rising, single point] | –
23 | Cc1cc(C)c2nc(N3CCN(C)CC3)c(C#N)cc2c1 | – | 0.00398 µM [rising, full curve, poor fit]
24 | COc1cc(-c2noc(C3CC(=O)N(c4ccc5c(c4)OCCO5)C3)n2)cc(OC)c1OC (centres undefined) | – | 3.98 µM [falling, partial curve]
25 | Cc1cccc(NC(=O)Nc2ccc(C#N)cc2)n1 | 5.62 µM [rising, single point] | 6.31 µM [rising, single point]
26 | CC(C)N(C(=O)CSc1nc2ccccc2c(=O)[nH]1)C(C)C | – | 0.891 µM [falling, full curve, poor fit]
27 | COc1ccc(C(=O)COC(=O)c2ccc(NC(=O)c3ccccc3)cc2)cc1 | 35.5 µM [falling, single point] | 28.2 µM [falling, partial curve]

Row | Compound | AC50 [1] | AC50 [2]
28 | CCc1ccc(NC(=O)c2cc3c(=O)n(Cc4cccs4)ccc3nc2C)cc1 | 11.2 µM [rising, partial curve] | 10 µM [rising, partial curve]
29 | COc1ccc(C(=O)Nc2ccc(-n3nncc3-c3ccc(OC)c(OC)c3)cc2)cc1 | – | 14.1 µM [falling, partial curve]
30 | CCN(CC)CC(=O)Nc1c(C)cccc1C | 31.6 µM [rising, single point] and 4.47 µM [falling, partial curve, poor fit] and 316 nM [falling, full curve, poor fit] | 0.00708 µM [falling, full curve, poor fit]
31 | CC(C)Sc1nnc(NC(=O)C2CC2)s1 | – | 0.00447 µM [rising, full curve, poor fit]
32 | COc1ccc(S(=O)(=O)N2CCOC2CNC(=O)C(=O)NCCc2ccc(OC)c(OC)c2)cc1C (centres undefined) | 12.6 µM [rising, partial curve] | 10 µM [rising, partial curve]
33 | Cc1ccc(-c2cn3c(n2)sc2cc(C(=O)NCCCc4ccccc4)ccc23)cc1 | 0.0316 µM [falling, full curve] | –
34 | COc1ccc(C(=O)Nc2cccc(/C(C)=N/NC(=O)c3ccc([N+](=O)[O-])c(C)c3)c2)cc1OC | 17.8 µM [rising, partial curve, poor fit] | –
35 | COc1ccc(NS(=O)(=O)c2ccc(NC(=O)N3CCCC3)cc2)cc1 | 2.82 µM [falling, partial curve] | 0.562 µM [falling, partial curve]
36 | O=C1OC(c2ccccc2)=N/C1=C\C=C\c1ccco1 | 0.00447 µM [falling, full curve, poor fit] | 15.8 µM [falling, single point]
37 | COc1ccccc1OCCC(=O)Nc1cccc(S(=O)(=O)N2CCCCC2)c1 | 10 µM [rising, partial curve] | 2.51 µM [rising, partial curve]
38 | Cc1cc(C)cc(NC(=S)NC2CC3CCCC(C2)N3C2CC2)c1 (centres undefined) | – | 28.2 µM [falling, single point]
39 | COc1ccc(Nc2cc(C)nc(-n3nc(C)cc3C)n2)cc1Cl | – | 3.98 µM [falling, full curve, poor fit]
40 | COc1c(C)c2c(c(O)c1CC=C(C)CCC(=O)OCCN1CCOCC1)C(=O)OC2 | 0.562 µM [rising, full curve] | 0.631 µM [falling, full curve]
41 | Cc1cccc(-c2nnc3n2N=C(c2ccccc2Br)CS3)c1 | 11.2 µM [rising, partial curve] | 11.2 µM [rising, single point]
42 | CCc1ccc(-c2cc(C(F)(F)F)n3nc(C(=O)Nc4c(C)nn(Cc5ccc(F)cc5)c4C)cc3n2)s1 | 14.1 µM [rising, partial curve] | 35.5 µM [rising, single point]
43 | COC(=O)C1=C(C)NC(C)=C(C(=O)OC)C1/C=C/c1ccccc1 | 35.5 µM [rising, single point] | –
44 | CCC(Sc1nc2cc3c(cc2c(=O)n1Cc1ccco1)OCO3)C(=O)Nc1cccc(OC)c1 (centres undefined) | 20 µM [falling, partial curve, poor fit] | –
45 | CCCCc1c(C)nc2c(OC)cccc2c1SCCC(=O)O | 10 µM [rising, partial curve, poor fit] | 7.94 µM [rising, partial curve]
46 | O=S(=O)(Nc1nc2c(s1)CCCC2)c1ccc(Br)cc1 | 25.1 µM [rising, single point] | –
47 | O=C(Nc1ccc(Cc2ccncc2)cc1)c1ccc(N2CCOCC2)c([N+](=O)[O-])c1 | 35.5 µM [rising, single point] | –
48 | COc1cccc(NC(=O)CSc2nc3ccc(NC(=O)c4ccco4)cc3s2)c1 | 22.4 µM [rising, partial curve] | –
49 | Cc1ccc(SC(C)C(=O)Nc2cccc(N(C)S(C)(=O)=O)c2)cc1 (centres undefined) | 11.2 µM [rising, single point] | –
50 | CCNC(=O)c1ccc(CSc2ccc(Cl)cc2)cc1 | 31.6 µM [rising, single point] | –
51 | CC(=O)Nc1ccc(OCC(O)Cn2c3ccccc3c3ccccc32)cc1 (centres undefined) | 35.5 µM [rising, single point] | –
52 | COc1cccc(CC(=O)N2CCc3nc(-c4ccc(OC)cc4C)c4c(c3C2)CO[C@@H](c2ccccc2)C4)c1 | 6.31 µM [rising, single point] | –
53 | Cc1sc(NC(=S)NC(=O)c2ccc(C(C)(C)C)cc2)c(C#N)c1C | 5.01 µM [rising, partial curve] | –
